Source: the supplement of paper PMC10849652
The list shows a part of the results.

Sequences of proteins named here, by UniProt entry; tags and fusion partners are left off. A change or cut given only in a name is not applied to a line headed by its entry.
UniProt O43148, whole entry, looked up: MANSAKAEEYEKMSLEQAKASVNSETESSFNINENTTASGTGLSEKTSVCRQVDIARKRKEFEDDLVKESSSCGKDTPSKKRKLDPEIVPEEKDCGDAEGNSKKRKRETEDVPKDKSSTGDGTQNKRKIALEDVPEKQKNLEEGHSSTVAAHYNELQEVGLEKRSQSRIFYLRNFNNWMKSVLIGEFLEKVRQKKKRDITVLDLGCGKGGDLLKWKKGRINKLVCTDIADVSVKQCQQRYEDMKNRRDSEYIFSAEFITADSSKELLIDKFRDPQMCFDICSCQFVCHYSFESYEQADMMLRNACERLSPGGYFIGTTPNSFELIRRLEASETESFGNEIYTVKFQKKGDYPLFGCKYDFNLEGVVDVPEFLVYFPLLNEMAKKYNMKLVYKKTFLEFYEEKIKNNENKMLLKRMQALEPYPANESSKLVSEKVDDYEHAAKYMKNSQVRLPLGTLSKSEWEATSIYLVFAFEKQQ
UniProt P04844: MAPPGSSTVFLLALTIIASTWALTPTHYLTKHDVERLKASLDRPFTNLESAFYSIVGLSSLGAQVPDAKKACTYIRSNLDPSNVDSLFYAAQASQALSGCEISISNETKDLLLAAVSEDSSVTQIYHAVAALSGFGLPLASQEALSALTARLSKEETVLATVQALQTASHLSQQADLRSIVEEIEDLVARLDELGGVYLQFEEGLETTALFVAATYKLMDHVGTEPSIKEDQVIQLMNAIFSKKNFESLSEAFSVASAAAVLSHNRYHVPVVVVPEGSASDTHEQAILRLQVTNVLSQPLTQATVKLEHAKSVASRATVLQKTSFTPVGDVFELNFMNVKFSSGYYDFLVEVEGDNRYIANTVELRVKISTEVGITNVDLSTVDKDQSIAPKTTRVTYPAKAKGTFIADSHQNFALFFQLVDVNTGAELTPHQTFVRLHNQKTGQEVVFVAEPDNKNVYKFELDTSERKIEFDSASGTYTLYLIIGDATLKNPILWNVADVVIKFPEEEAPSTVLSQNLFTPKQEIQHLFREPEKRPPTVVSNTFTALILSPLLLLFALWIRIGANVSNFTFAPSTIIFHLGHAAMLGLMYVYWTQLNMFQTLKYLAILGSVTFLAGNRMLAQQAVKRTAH
UniProt Q9BUL9: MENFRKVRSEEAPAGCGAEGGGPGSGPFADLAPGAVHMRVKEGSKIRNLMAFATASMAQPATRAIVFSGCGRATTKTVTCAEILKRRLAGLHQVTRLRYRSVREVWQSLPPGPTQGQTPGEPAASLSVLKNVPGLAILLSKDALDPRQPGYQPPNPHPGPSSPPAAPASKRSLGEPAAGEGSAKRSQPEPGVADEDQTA
UniProt Q15418, whole entry, looked up: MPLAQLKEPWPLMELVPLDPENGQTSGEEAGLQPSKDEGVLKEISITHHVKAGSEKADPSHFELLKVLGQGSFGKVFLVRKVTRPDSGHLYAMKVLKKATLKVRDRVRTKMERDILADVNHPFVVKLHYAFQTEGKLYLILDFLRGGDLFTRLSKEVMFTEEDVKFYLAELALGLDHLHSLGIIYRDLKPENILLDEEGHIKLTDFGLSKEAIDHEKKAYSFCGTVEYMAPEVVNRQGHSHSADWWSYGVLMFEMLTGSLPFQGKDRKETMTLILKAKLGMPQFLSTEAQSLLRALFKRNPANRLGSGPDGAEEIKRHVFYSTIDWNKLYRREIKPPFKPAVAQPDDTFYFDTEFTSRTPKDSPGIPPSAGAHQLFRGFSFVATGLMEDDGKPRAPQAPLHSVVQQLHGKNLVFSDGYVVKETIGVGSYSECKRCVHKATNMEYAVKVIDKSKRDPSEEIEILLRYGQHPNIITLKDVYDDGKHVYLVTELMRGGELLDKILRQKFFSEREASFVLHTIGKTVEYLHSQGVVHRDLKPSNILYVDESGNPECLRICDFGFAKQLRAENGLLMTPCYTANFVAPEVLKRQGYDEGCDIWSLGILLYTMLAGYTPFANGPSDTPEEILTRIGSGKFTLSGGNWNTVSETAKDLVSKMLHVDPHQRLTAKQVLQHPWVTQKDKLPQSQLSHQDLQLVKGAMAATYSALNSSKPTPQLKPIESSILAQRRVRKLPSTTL
UniProt Q99942: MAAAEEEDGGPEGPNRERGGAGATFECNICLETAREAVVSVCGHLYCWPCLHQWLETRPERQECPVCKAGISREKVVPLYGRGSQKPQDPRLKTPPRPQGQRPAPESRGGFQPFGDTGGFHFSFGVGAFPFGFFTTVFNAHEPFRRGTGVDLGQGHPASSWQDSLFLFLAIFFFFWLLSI

Experiments:
Assay in all cases: log2 fold change, soluble protein after heating vs DMSO (PISA); higher = thermal stabilisation; K562 cells, 10 uM, 30 min; active = over 0.2 and 3.5 SD of the protein, either way, in both replicates (recomputed)
[1] = compound: COC1=CC=C(C=C1)CN2C=CC3=C2C=C(C=C3)C(=O)NO
In short: (§1)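 Aliquots of K562 cells (2×10^6 cells/mL) treated with 10 μM compound for 30 min were heated for 3 min over 48°C-58°C. After pooling and extraction in PBS with 0.5% NP-40 at 4°C, soluble protein from a 21,000xg, 90 min spin was quantified by TMTpro 16plex LC-MS/MS with channel sums equalised. Thermal stability is expressed against control samples, from duplicates, as a log2 fold change.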

[2] = compound: CON(C)C(=O)N1N=C(c2cc(F)ccc2F)S[C@@]1(CCCN)c1ccccc1 [filanesib]
In short: as §1

[3] = compound: CO[C@H]1C[C@@H]2CC[C@@H](C)[C@@](O)(O2)C(=O)C(=O)N2CCCC[C@H]2C(=O)O[C@H]([C@H](C)C[C@@H]2CC[C@H](n3cnnn3)[C@H](OC)C2)CC(=O)[C@H](C)/C=C(\C)[C@@H](O)[C@@H](OC)C(=O)[C@H](C)C[C@H](C)/C=C/C=C/C=C/1C [zotarolimus]
In short: as §1

[4] = compound: COc1cc(C(=O)O)ccc1NC(=O)[C@@H]1N[C@@H](CC(C)(C)C)[C@](C#N)(c2ccc(Cl)cc2F)[C@H]1c1cccc(Cl)c1F [idasanutlin]
In short: as §1

[5] = compound: COc1cc(Nc2ncc3c(n2)-c2ccc(Cl)cc2C(c2c(F)cccc2OC)=NC3)ccc1C(=O)O [alisertib]
In short: as §1

[6] = compound: COc1cc2nc(-c3cc(F)ccc3O)nc(N[C@@H]3CNC[C@H]3C(C)(C)O)c2cc1OC
In short: as §1

[7] = compound: COc1cc2ncnc(Nc3ccc(F)c(Cl)c3)c2cc1OCCCN1CCOCC1 [gefitinib]
In short: as §1

[8] = compound: COc1cccc2cc(-c3nc([C@H]4CC[C@H](C(=O)O)CC4)n4ncnc(N)c34)[nH]c12
In short: as §1

[9] = compound: CS(=O)(=O)CCNCc1ccc(-c2ccc3ncnc(Nc4ccc(OCc5cccc(F)c5)c(Cl)c4)c3c2)o1 [lapatinib]
In short: as §1

[10] = compound: CS(=O)(=O)N1CCN(Cc2cc3nc(-c4cccc5[nH]ncc45)nc(N4CCOCC4)c3s2)CC1 [pictilisib]
In short: as §1

[11] = compound: CS(=O)(=O)c1ccc(-c2cnc(N)c(C(=O)Nc3ccccc3)n2)cc1
In short: as §1

[12] = compound: C[C@@H](Oc1cc(-c2cnn(C3CCNCC3)c2)cnc1N)c1c(Cl)ccc(F)c1Cl [crizotinib]
In short: as §1

[13] = compound: C[C@@H]1COCCN1C2=NC(=NC(=C2)C3(CC3)S(=O)(=O)C)C4=C5C=CNC5=CC=C4
In short: as §1

[14] = compound: C[C@H](C1=CC=C(C=C1)C(=O)NC2=C3C=CNC3=NC=C2)N
In short: as §1

[15] = compound: Cc1cc(Nc2cc(CN3CCOCC3)c3nc(C)c(Cc4ccc(Cl)cc4F)n3n2)n[nH]1 [gandotinib]
In short: as §1

[16] = compound: Cc1cc(SCc2sc(-c3ccc(C(F)(F)F)cc3)nc2C)ccc1OCC(=O)O
In short: as §1

[17] = compound: Cc1ccc(-n2nc(C(C)(C)C)cc2NC(=O)Nc2ccc(OCCN3CCOCC3)c3ccccc23)cc1 [doramapimod]
In short: as §1

[18] = compound: Cc1ccc(C(=O)N(CCCN)[C@@H](c2nc3cc(Cl)ccc3c(=O)n2Cc2ccccc2)C(C)C)cc1 [ispinesib]
In short: as §1

[19] = compound: C[C@H](Nc1ncnc2nc[nH]c12)c1cc2cccc(Cl)c2c(=O)n1-c1ccccc1 [duvelisib]
In short: as §1

[20] = compound: Cc1cc(Nc2cc(N3CCN(C)CC3)nc(Sc3ccc(NC(=O)C4CC4)cc3)n2)n[nH]1 [tozasertib]
In short: as §1

Row | Target | log2 fold change [1] | log2 fold change [2] | log2 fold change [3] | log2 fold change [4] | log2 fold change [5] | log2 fold change [6] | log2 fold change [7] | log2 fold change [8] | log2 fold change [9] | log2 fold change [10] | log2 fold change [11] | log2 fold change [12] | log2 fold change [13] | log2 fold change [14] | log2 fold change [15] | log2 fold change [16] | log2 fold change [17] | log2 fold change [18] | log2 fold change [19] | log2 fold change [20]
1 | RPL38 (UniProt P63173) | inactive: -0.109 | inactive: 0 | inactive: -0.007 | inactive: 0.055 | inactive: -0.064 | inactive: 0.061 | inactive: -0.074 | inactive: -0.171 | inactive: 0.05 | inactive: -0.053 | inactive: -0.039 | inactive: -0.069 | active: -0.258 | inactive: 0.077 | inactive: 0.144 | inactive: -0.008 | inactive: 0.017 | inactive: -0.093 | – | –
2 | RPS28 (UniProt P62857) | inactive: -0.035 | inactive: 0.108 | inactive: -0.16 | inactive: 0.096 | inactive: -0.049 | inactive: -0.071 | inactive: 0.032 | inactive: -0.008 | inactive: -0.002 | inactive: -0.027 | inactive: -0.062 | inactive: 0.014 | inactive: -0.103 | inactive: 0.099 | inactive: 0.055 | inactive: -0.062 | inactive: 0.041 | inactive: -0.068 | inactive: -0.12 | inactive: -0.043
3 | RPL29 (UniProt P47914) | inactive: -0.088 | inactive: 0.598 | inactive: 0.057 | inactive: 0.327 | inactive: -0.159 | inactive: -0.265 | inactive: -0.051 | inactive: -0.292 | inactive: 0.256 | inactive: -0.153 | inactive: -0.095 | inactive: -0.057 | inactive: -1.08 | inactive: 0.403 | inactive: 0.409 | inactive: 0.05 | inactive: 0.268 | inactive: -0.078 | inactive: -0.346 | inactive: 0.056
4 | RPL4 (UniProt P36578) | inactive: -0.085 | inactive: 0.791 | inactive: 0.016 | inactive: 0.376 | inactive: -0.201 | inactive: -0.201 | inactive: -0.091 | inactive: -0.427 | inactive: 0.431 | inactive: -0.246 | inactive: -0.1 | inactive: 0.037 | inactive: -1.24 | inactive: 0.607 | inactive: 0.437 | inactive: 0.048 | inactive: 0.372 | inactive: -0.224 | inactive: -0.303 | inactive: 0.035
5 | RPS27L (UniProt Q71UM5) | inactive: 0.044 | inactive: 0.065 | inactive: 0.04 | inactive: 0.056 | inactive: -0.053 | inactive: 0.036 | inactive: -0.035 | inactive: -0.152 | inactive: -0.012 | inactive: 0 | inactive: -0.025 | inactive: -0.008 | inactive: -0.17 | inactive: 0.117 | inactive: 0.147 | inactive: 0.063 | inactive: 0.016 | inactive: -0.05 | inactive: -0.025 | inactive: 0.037
6 | RNMT isoform 2 (UniProt O43148) | inactive: -0.053 | inactive: 0.087 | inactive: -0.021 | inactive: 0.046 | inactive: -0.04 | inactive: 0.014 | inactive: -0.026 | inactive: 0 | inactive: 0.008 | inactive: -0.037 | inactive: -0.048 | inactive: 0.038 | inactive: -0.04 | inactive: 0.138 | inactive: 0.051 | inactive: -0.019 | inactive: 0.027 | inactive: -0.041 | inactive: -0.048 | inactive: -0.048
7 | RPL27A (UniProt P46776) | inactive: -0.098 | inactive: 0.572 | inactive: -0.092 | inactive: 0.258 | inactive: -0.222 | inactive: -0.14 | inactive: -0.015 | inactive: -0.41 | inactive: 0.218 | inactive: -0.252 | inactive: -0.021 | inactive: 0.054 | inactive: -0.93 | inactive: 0.477 | inactive: 0.356 | inactive: -0.027 | inactive: 0.262 | inactive: -0.257 | inactive: -0.301 | inactive: 0.077
8 | RPN2 (UniProt P04844) | inactive: 0 | inactive: -0.038 | inactive: 0.024 | inactive: -0.014 | inactive: -0.066 | inactive: -0.054 | inactive: -0.006 | inactive: 0.005 | inactive: 0.073 | inactive: -0.007 | inactive: -0.002 | inactive: -0.001 | inactive: -0.012 | inactive: 0.017 | inactive: -0.008 | inactive: 0.005 | inactive: 0.022 | inactive: 0 | inactive: -0.009 | inactive: 0.023
9 | RPL37A (UniProt P61513) | inactive: 0.013 | inactive: 0.618 | inactive: 0.092 | inactive: 0.372 | inactive: -0.215 | inactive: -0.098 | inactive: -0.08 | inactive: -0.503 | inactive: 0.331 | inactive: -0.052 | inactive: -0.126 | inactive: 0.052 | inactive: -1.18 | inactive: 0.701 | inactive: 0.413 | inactive: 0.066 | inactive: 0.227 | inactive: -0.229 | inactive: -0.332 | inactive: 0.051
10 | RPP25 (UniProt Q9BUL9) | inactive: 0.009 | inactive: 0.041 | inactive: 0.042 | inactive: 0.039 | inactive: -0.137 | inactive: -0.024 | inactive: -0.008 | inactive: -0.009 | inactive: 0.024 | inactive: -0.054 | inactive: -0.035 | inactive: -0.034 | inactive: -0.116 | inactive: -0.02 | inactive: 0.158 | inactive: -0.005 | inactive: -0.071 | inactive: -0.071 | inactive: 0 | inactive: 0.007
11 | RPS6KA1 isoform 2 (UniProt Q15418) | inactive: 0.087 | inactive: -0.022 | inactive: 0.025 | inactive: -0.016 | inactive: -0.01 | inactive: -0.202 | inactive: -0.062 | inactive: 0 | inactive: 0.013 | inactive: -0.053 | inactive: 0 | inactive: -0.259 | inactive: 0.138 | inactive: -0.066 | inactive: -0.199 | inactive: 0.066 | inactive: -0.026 | inactive: 0.021 | – | –
12 | RPL21 (UniProt P46778) | inactive: -0.147 | inactive: 0.758 | inactive: -0.016 | inactive: 0.331 | inactive: -0.178 | inactive: -0.197 | inactive: -0.073 | inactive: -0.395 | inactive: 0.304 | inactive: -0.192 | inactive: -0.036 | inactive: 0.055 | inactive: -1.06 | inactive: 0.717 | inactive: 0.448 | inactive: 0 | inactive: 0.427 | inactive: -0.257 | inactive: -0.267 | inactive: 0.046
13 | RNF5 (UniProt Q99942) | inactive: 0.275 | inactive: -0.181 | inactive: -0.026 | inactive: -0.081 | inactive: 0.005 | inactive: -0.279 | inactive: -0.016 | inactive: -0.006 | inactive: -0.06 | inactive: -0.039 | inactive: -0.043 | inactive: -0.324 | inactive: 0.147 | inactive: -0.059 | inactive: -0.069 | – | inactive: 0.053 | inactive: -0.09 | – | inactive: 0.019
14 | RPSA (UniProt P08865) | inactive: -0.059 | inactive: 0.076 | inactive: -0.031 | inactive: 0.017 | inactive: -0.106 | inactive: 0.019 | inactive: 0 | inactive: -0.093 | inactive: 0.036 | inactive: 0 | inactive: 0.023 | inactive: 0.076 | inactive: -0.083 | inactive: 0.097 | inactive: 0.043 | inactive: -0.032 | inactive: 0.016 | inactive: -0.045 | inactive: -0.023 | inactive: -0.021
15 | RPS3A (UniProt P61247) | inactive: -0.112 | inactive: 0.117 | inactive: 0.006 | inactive: 0.069 | inactive: -0.052 | inactive: -0.009 | inactive: -0.06 | inactive: -0.152 | inactive: 0.053 | inactive: -0.078 | inactive: -0.064 | inactive: 0.022 | inactive: -0.182 | inactive: 0.196 | inactive: 0.175 | inactive: 0.029 | inactive: 0.044 | inactive: -0.072 | – | –
16 | RPL19 (UniProt P84098) | inactive: -0.099 | inactive: 0.573 | inactive: 0.066 | inactive: 0.203 | inactive: -0.153 | inactive: -0.103 | inactive: -0.034 | inactive: -0.255 | inactive: 0.172 | inactive: -0.067 | inactive: -0.025 | inactive: 0.089 | inactive: -0.72 | inactive: 0.435 | inactive: 0.372 | inactive: -0.041 | inactive: 0.267 | inactive: -0.23 | inactive: -0.284 | inactive: 0.067

Single records, as listed above. Values in the order: log2 fold change [1]	log2 fold change [2]	log2 fold change [3]	log2 fold change [4]	log2 fold change [5]	log2 fold change [6]	log2 fold change [7]	log2 fold change [8]	log2 fold change [9]	log2 fold change [10]	log2 fold change [11]	log2 fold change [12]	log2 fold change [13]	log2 fold change [14]	log2 fold change [15]	log2 fold change [16]	log2 fold change [17]	log2 fold change [18]	log2 fold change [19]	log2 fold change [20]
RPS3A (UniProt P61247) as listed: inactive: -0.112	inactive: 0.117	inactive: 0.006	inactive: 0.069	inactive: -0.052	inactive: -0.009	inactive: -0.06	inactive: -0.152	inactive: 0.053	inactive: -0.078	inactive: -0.064	inactive: 0.022	inactive: -0.182	inactive: 0.196	inactive: 0.175	inactive: 0.029	inactive: 0.044	inactive: -0.072	–	–
RPS27L (UniProt Q71UM5) as listed: inactive: 0.044	inactive: 0.065	inactive: 0.04	inactive: 0.056	inactive: -0.053	inactive: 0.036	inactive: -0.035	inactive: -0.152	inactive: -0.012	inactive: 0	inactive: -0.025	inactive: -0.008	inactive: -0.17	inactive: 0.117	inactive: 0.147	inactive: 0.063	inactive: 0.016	inactive: -0.05	inactive: -0.025	inactive: 0.037
